{"source": "PubChem BioAssay AID540256", "about": "(National Center for Advancing Translational Sciences (NCATS), 2011)", "note": "Screen size: about 300,000 compounds; about 3,700 (1.2%) were called active. The shares of active, inactive and inconclusive entries below differ from those in the screen. Calls come from the whole dose curve; tested in HEK293 cells. Potencies of inconclusive entries are doubtful fits and often do not repeat. % is set by controls: 0 for no effect and ±100 for the full control effect; potency is the fitted concentration of half-maximal effect."}
{"test": "qHTS for Inhibitors of binding or entry into cells for Lassa Virus; note: nearly all actives have a fitted effect of over 50% in size", "conditions": "Lassa virus pseudotype entry inhibition, cell reporter; activity change, negative = inhibition: at 37.9 µM (top of the series) unless noted"}
{"smiles": "Cc1ccc(C)c(N2C(=O)N(C)c3ccccc3S2(=O)=O)c1", "activity change, negative = inhibition": "inactive: 6.64% [at 46.1 µM]"}
{"smiles": "CCc1cccc(OCC2Cn3c(nc4c3c(=O)n(C)c(=O)n4C)O2)c1", "note": "(configuration not stated)", "Potency": "inconclusive: 1.78 µM [inhibitor, full curve, poor fit]"}
{"smiles": "N#Cc1ccc(NC2=NS(=O)(=O)c3ccccc32)cc1", "Potency": "inconclusive: 6.31 µM [activator, single point]"}
{"smiles": "CCCCCCCCCCOC(=O)Cn1c(COc2ccc(C)cc2)[n+](C)c2ccccc21", "Potency": "inconclusive: 14.1 µM [inhibitor, single point]"}
{"smiles": "c1ccc(CCNc2nc(-c3ccncc3)cs2)cc1", "activity change, negative = inhibition": "inactive: -17.7%"}
{"smiles": "Cc1ccc(/C=C/c2ccc3cccc(O)c3n2)s1", "Potency": "inconclusive: 35.5 µM [inhibitor, single point]"}
{"smiles": "CC(=O)Nc1ccc(S(=O)(=O)NCC(=O)OCC(=O)N2CCN(c3ccccc3)CC2)cc1", "Potency": "inconclusive: 3.55 µM [inhibitor, single point]"}
{"smiles": "C=CCN(c1ccccc1OC)S(=O)(=O)c1cccc(C(=O)NCc2cccs2)c1", "Potency": "inconclusive: 3.16 µM [inhibitor, full curve]"}
{"smiles": "COc1ccc(-c2c(C)nn3c(N4CCN(c5ccccc5F)CC4)cc(C)nc23)cc1OC", "activity change, negative = inhibition": "inactive: -15.9% [at 46.1 µM]"}
{"smiles": "CCN(CC)CCCNc1nc(-n2nc(C)cc2C)nc2sc3c(c12)CC(C)(C)OC3", "Potency": "inconclusive: 35.5 µM [inhibitor, single point]"}
{"smiles": "O=C(CN1CCN(c2ccccc2)CC1)Nc1c(C(=O)C2CC2)oc2ccccc12", "Potency": "inconclusive: 8.2 µM [inhibitor, partial curve, poor fit]"}
{"smiles": "COc1cccc(NC(=O)Cn2cc(C(=O)c3ccc(F)cc3)c(=O)c3cc(OC)ccc32)c1", "Potency": "inconclusive: 1 µM [activator, full curve, poor fit]"}
{"smiles": "CCCOc1ccc(/C(O)=C2/C(=O)C(=O)N(CCCn3ccnc3)C2c2ccco2)cc1", "note": "(configuration not stated)", "activity change, negative = inhibition": "inactive: 26.3%"}
{"smiles": "Cc1cc(C)c(/C=N/NC(=O)c2nnn(-c3nonc3N)c2CN2CCC(C)CC2)c(C)c1", "Potency": "inconclusive: 35.5 µM [inhibitor, single point]"}
{"smiles": "C=CCc1ccc(OCc2ccc(C(=O)Nc3ccc(NC(C)=O)cc3)o2)c(OC)c1", "Potency": "inconclusive: 35.5 µM [activator, single point]"}
{"smiles": "CCCC1(c2ccccc2)NC(=O)N(CC(=O)c2[nH]c(C)c(C(=O)OCC)c2C)C1=O", "note": "(configuration not stated)", "Potency": "inconclusive: 22.4 µM [inhibitor, partial curve, poor fit]"}
{"smiles": "Cc1cnc(NC(=O)CC2CCCC2)s1", "Potency": "inconclusive: 8.91 µM [inhibitor, partial curve, poor fit]"}
